Substitutions are numbered along the chain they refer to. Results are given in words; binding and its absence hold for the method and conditions named. Binding seen in cells or lysates may run through a third protein. Some results given as binding are weak or reduced against the parent protein; the word gives no strength. For some assays here: Sequences can lack the tags named with a protein.

Sequences of proteins named here, by UniProt entry; tags and fusion partners are left off.
UniProt P54132: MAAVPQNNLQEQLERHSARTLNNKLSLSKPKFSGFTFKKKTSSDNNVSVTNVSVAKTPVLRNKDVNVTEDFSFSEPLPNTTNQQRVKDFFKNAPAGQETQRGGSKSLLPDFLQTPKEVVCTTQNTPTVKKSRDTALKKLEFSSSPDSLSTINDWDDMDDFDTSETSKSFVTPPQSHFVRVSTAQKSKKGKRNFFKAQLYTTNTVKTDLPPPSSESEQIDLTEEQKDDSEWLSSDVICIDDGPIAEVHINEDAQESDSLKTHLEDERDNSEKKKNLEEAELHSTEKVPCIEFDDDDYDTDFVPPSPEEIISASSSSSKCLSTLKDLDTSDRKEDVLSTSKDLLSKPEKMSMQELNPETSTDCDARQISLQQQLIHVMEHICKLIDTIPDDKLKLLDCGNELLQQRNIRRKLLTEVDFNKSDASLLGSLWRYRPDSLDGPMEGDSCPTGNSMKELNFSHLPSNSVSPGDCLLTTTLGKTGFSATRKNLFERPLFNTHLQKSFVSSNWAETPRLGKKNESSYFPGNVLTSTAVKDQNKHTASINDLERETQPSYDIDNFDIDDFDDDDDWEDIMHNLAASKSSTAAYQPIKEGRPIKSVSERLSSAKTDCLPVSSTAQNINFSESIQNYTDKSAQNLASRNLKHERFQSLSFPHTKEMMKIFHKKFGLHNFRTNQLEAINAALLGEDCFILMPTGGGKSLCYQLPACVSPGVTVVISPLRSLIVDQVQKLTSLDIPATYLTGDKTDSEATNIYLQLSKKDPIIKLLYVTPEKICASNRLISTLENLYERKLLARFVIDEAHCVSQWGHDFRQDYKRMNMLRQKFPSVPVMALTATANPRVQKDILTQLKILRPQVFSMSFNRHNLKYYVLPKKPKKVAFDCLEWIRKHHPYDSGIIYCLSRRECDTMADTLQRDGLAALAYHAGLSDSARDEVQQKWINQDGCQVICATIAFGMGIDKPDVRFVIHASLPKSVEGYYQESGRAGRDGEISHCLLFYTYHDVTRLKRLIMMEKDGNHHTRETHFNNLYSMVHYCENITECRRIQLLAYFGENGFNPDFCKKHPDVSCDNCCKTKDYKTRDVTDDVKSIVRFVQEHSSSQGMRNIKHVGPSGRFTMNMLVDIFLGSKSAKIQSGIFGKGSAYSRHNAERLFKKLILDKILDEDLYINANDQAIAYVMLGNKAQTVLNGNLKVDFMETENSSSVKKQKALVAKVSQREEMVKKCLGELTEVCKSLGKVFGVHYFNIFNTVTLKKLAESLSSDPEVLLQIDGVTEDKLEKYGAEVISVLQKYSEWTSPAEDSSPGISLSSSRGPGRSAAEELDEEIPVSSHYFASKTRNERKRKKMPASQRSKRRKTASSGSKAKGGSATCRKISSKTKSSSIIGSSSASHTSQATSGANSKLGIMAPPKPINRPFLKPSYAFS

For assay [1], the target named is T1, Flag-tagged FANCJ D736H (in HeLa FJ-KO cells) (human) (UniProt Q9BX63).
T1 sequence: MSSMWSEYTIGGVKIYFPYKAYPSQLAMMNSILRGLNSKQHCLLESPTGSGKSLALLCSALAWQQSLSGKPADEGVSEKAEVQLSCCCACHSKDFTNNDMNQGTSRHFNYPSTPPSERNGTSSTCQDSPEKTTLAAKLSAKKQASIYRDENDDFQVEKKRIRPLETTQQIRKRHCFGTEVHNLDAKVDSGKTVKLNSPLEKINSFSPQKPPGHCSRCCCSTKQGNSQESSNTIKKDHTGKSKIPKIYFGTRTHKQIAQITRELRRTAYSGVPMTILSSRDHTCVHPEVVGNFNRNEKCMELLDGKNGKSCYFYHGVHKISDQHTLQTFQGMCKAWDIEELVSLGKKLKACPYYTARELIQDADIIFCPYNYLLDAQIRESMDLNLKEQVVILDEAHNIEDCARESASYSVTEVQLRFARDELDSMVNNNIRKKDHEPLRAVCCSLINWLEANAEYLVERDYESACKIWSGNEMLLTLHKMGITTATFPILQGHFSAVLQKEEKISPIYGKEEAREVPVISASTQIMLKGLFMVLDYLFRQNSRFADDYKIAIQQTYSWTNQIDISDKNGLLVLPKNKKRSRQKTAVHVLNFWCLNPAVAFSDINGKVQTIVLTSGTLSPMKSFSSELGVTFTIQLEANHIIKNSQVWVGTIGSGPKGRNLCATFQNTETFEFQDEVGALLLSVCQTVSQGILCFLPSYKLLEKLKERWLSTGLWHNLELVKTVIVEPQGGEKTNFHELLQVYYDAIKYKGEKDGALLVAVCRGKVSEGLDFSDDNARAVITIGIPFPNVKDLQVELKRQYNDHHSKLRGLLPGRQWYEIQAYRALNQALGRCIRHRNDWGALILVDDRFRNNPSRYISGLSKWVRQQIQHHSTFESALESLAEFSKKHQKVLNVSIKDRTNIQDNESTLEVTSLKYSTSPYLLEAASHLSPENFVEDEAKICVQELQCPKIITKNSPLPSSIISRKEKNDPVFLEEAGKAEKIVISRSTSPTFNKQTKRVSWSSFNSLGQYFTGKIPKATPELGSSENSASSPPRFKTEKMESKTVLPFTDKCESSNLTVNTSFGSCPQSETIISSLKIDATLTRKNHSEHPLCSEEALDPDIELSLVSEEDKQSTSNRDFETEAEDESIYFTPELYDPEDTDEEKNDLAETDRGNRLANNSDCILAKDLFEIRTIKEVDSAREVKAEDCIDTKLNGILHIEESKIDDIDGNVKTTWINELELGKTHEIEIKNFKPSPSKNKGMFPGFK
Nature of the assay: co-IP; anti-Flag agarose beads; whole extracts of HeLa FJ-KO cells transiently transfected with Flag-FANCJ WT or mutants; Western blot. For orientation: Immunoblotting shows a protein as a band on a membrane.

Assay [2] deals with T2, Flag-tagged FANCJ N734H (in HeLa FJ-KO cells) (human) (UniProt Q9BX63).
T2 sequence: T1 sequence with N734H, H736D
The assay is described as above.

Assay [3] deals with T3, Flag-tagged FANCJ wild type (in HeLa FJ-KO cells) (human) (UniProt Q9BX63).
T3 sequence: T1 sequence with H736D
The description is as above.

Assay [4] deals with T4, Flag-tagged FANCJ wild type (human, UniProt Q9BX63 1-1249).
T4 construct: FANCJ (BRIP1, BACH1) DNA helicase, human, open reading frame; purified as full-length protein; Plasmid from Hisao Masai (Uno et al, 2012); also called FANCJ WT; Flag-FANCJ WT; source: HEK 293T, transiently transfected (pCSII-EF-MCS): in whole-cell extract or nuclear fraction; also purified (anti-Flag M2 agarose, 3x Flag-peptide elution)
T4 sequence (looked up): T1 sequence with H736D
Kind of assay: co-IP; anti-Flag M2 agarose beads; whole extracts of HEK 293T cells transfected with Flag-FANCJ, sonicated and Benzonase-treated; 150 mM NaCl, 0.25% Triton X-100, 4 °C; AND-1 band normalised to pulled-down FANCJ, WT = 100%.

Assay [5] addresses T5, endogenous CDC45 (human (endogenous in HEK 293T)) (UniProt O75419).
T5 sequence: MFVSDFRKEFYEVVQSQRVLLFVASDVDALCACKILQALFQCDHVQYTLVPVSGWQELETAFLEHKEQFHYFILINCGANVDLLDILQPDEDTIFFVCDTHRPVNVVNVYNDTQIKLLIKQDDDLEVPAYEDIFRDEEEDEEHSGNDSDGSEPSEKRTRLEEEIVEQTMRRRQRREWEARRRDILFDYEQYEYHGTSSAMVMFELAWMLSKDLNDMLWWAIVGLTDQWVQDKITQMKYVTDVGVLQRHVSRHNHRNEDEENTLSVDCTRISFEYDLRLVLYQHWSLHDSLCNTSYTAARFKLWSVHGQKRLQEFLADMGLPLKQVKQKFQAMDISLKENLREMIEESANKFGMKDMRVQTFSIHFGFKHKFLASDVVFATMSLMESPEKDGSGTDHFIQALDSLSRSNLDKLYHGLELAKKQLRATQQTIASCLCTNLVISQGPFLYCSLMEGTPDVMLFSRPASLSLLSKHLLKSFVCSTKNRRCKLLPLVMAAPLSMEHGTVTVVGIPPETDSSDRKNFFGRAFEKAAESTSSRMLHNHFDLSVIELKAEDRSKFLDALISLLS
Nature of the assay: co-IP; anti-CDC45 rabbit IgG on Protein A Sepharose beads; nuclear fraction of HEK 293T cells transfected with Flag-FANCJ and released in S phase after thymidine block, sonicated and nuclease-treated; FANCJ normalised to pulled-down CDC45.

BLM (from UniProt P54132 1-1417): the binding entry in assay [1], in assay [2] and in assay [3] was “binds” throughout.

B1: endogenous AND-1 (HEK 293T) (protein, UniProt O75717 1-1129)
chain: MPATRKPMRYGHTEGHTEVCFDDSGSFIVTCGSDGDVRIWEDLDDDDPKFINVGEKAYSCALKSGKLVTAVSNNTIQVHTFPEGVPDGILTRFTTNANHVVFNGDGTKIAAGSSDFLVKIVDVMDSSQQKTFRGHDAPVLSLSFDPKDIFLASASCDGSVRVWQISDQTCAISWPLLQKCNDVINAKSICRLAWQPKSGKLLAIPVEKSVKLYRRESWSHQFDLSDNFISQTLNIVTWSPCGQYLAAGSINGLIIVWNVETKDCMERVKHEKGYAICGLAWHPTCGRISYTDAEGNLGLLENVCDPSGKTSSSKVSSRVEKDYNDLFDGDDMSNAGDFLNDNAVEIPSFSKGIINDDEDDEDLMMASGRPRQRSHILEDDENSVDISMLKTGSSLLKEEEEDGQEGSIHNLPLVTSQRPFYDGPMPTPRQKPFQSGSTPLHLTHRFMVWNSIGIIRCYNDEQDNAIDVEFHDTSIHHATHLSNTLNYTIADLSHEAILLACESTDELASKLHCLHFSSWDSSKEWIIDLPQNEDIEAICLGQGWAAAATSALLLRLFTIGGVQKEVFSLAGPVVSMAGHGEQLFIVYHRGTGFDGDQCLGVQLLELGKKKKQILHGDPLPLTRKSYLAWIGFSAEGTPCYVDSEGIVRMLNRGLGNTWTPICNTREHCKGKSDHYWVVGIHENPQQLRCIPCKGSRFPPTLPRPAVAILSFKLPYCQIATEKGQMEEQFWRSVIFHNHLDYLAKNGYEYEESTKNQATKEQQELLMKMLALSCKLEREFRCVELADLMTQNAVNLAIKYASRSRKLILAQKLSELAVEKAAELTATQVEEEEEEEDFRKKLNAGYSNTATEWSQPRFRNQVEEDAEDSGEADDEEKPEIHKPGQNSFSKSTNSSDVSAKSGAVTFSSQGRVNPFKVSASSKEPAMSMNSARSTNILDNMGKSSKKSTALSRTTNNEKSPIIKPLIPKPKPKQASAASYFQKRNSQTNKTEEVKEENLKNVLSETPAICPPQNTENQRPKTGFQMWLEENRSNILSDNPDFSDEADIIKEGMIRFRVLSTEERKVWANKAKGETASEGTEAKKRKRVVDESDETENQEEKAKENLNLSKKQKPLDFSTNQKLSAFAFKQE
With B1, the binding result in assay [4] and in assay [5] was “binds” throughout.

For the origin of these results see publication PMC10897178, “FANCJ DNA helicase is recruited to the replisome by AND-1 to ensure genome stability” (EMBO Reports, 2024).
